# Assay results from patent US12522827B2 (priority 2021, dated 2026).
# Some results were stated once for a whole list of compounds, not compound by compound. l = locked nucleic acid (LNA); d = 2'-deoxy (DNA)
# Tested on: respiratory viruses
# Test: Anti respiratory virus activity of IBV-targeting LNAs (Example 8)
# Type: cell-based
# Settings: virus not stated
row,Substance,inhibition of viral replication
1,"+A+C+TCATGGTAGTA+A+C+A (ACTCATGGTAGTAACA; antisense; sugars from the 5' end l3 d10 l3, backbone and methylation of C not given here) [IBV-LNA 1.5]",≥ 1 log 10

# Tested on: SARS-CoV-2-nLuc virus
# Test: not given
# Type: cell-based
# Settings: not given
row,Substance,inhibition of viral replication
1,"+T+C+CATCTTACCTT+T+C+G (TCCATCTTACCTTTCG; antisense; sugars from the 5' end l3 d10 l3, backbone and methylation of C not given here) [Cov 14.4]",≥ 1 log 10
2,"+T+C+GATCGTACTC+C+G+C (TCGATCGTACTCCGC; antisense; sugars from the 5' end l3 d9 l3, backbone and methylation of C not given here) [Cov 10.1]",≥ 1 log 10
3,"+T+C+GTCCGGGTG+T+G+A (TCGTCCGGGTGTGA; antisense; sugars from the 5' end l3 d8 l3, backbone and methylation of C not given here) [Neg 8.2]",≥ 1 log 10
4,"+T+C+GTTTAGAGAAC+A+G+A+T (TCGTTTAGAGAACAGAT; antisense; sugars from the 5' end l3 d10 l4, backbone and methylation of C not given here) [Cov 6.7]",≥ 1 log 10
5,"+T+C+GTTTAGAGAACA+G+A+T (TCGTTTAGAGAACAGAT; antisense; sugars from the 5' end l3 d11 l3, backbone and methylation of C not given here) [Cov 6.7-1]",≥ 1 log 10
6,"+T+C+TCCAACCCCA+C+A+A (TCTCCAACCCCACAA; antisense; sugars from the 5' end l3 d9 l3, backbone and methylation of C not given here) [LNA-6796.1, miR-6796 targeted]",≥ 1 log 10
7,"+T+G+ATCCCTGTCCC+C+A+T (TGATCCCTGTCCCCAT; antisense; sugars from the 5' end l3 d10 l3, backbone and methylation of C not given here) [LNA6810.1, miR-6810 targeted]",≥ 1 log 10
8,"+T+G+C+TACAACTTC+C+T+C (TGCTACAACTTCCTC; antisense; sugars from the 5' end l4 d8 l3, backbone and methylation of C not given here) [Neg 12.2]",≥ 1 log 10
9,"+T+G+C+TTTTGGG+A+T+T+C (TGCTTTTGGGATTC; antisense; sugars from the 5' end l4 d6 l4, backbone and methylation of C not given here) [LNA-191.12, miR-191 targeted]",≥ 1 log 10
10,"+T+G+C+TTTTGGGA+T+T+C (TGCTTTTGGGATTC; antisense; sugars from the 5' end l4 d7 l3, backbone and methylation of C not given here) [LNA-191.11, miR-191 targeted]",≥ 1 log 10
11,"+T+G+CTGTTAGCC+C+T+A (TGCTGTTAGCCCTA; antisense; sugars from the 5' end l3 d8 l3, backbone and methylation of C not given here) [LNA-744.4, miR-744 targeted]",≥ 1 log 10
12,"+T+G+CTTTTGGGA+T+T+C (TGCTTTTGGGATTC; antisense; sugars from the 5' end l3 d8 l3, backbone and methylation of C not given here) [LNA-191.13, miR-191 targeted]",≥ 1 log 10
13,"+T+G+G+GTTTCGTCC+G+T+T (TGGGTTTCGTCCGTT; antisense; sugars from the 5' end l4 d8 l3, backbone and methylation of C not given here) [LNA-191.3, miR-191 targeted]",≥ 1 log 10
14,"+T+G+GCATGGAAT+G+G+G (TGGCATGGAATGGG; antisense; LNA at 1, 2, 3, 12, 13, 14, other sugars and backbone not given here) [LNA-4730.2, miR-4730 targeted]",≥ 1 log 10
15,"+T+G+GCCTGTCCC+C+G+C+A (TGGCCTGTCCCCGCA; antisense; LNA at 1, 2, 3, 12, 13, 14, 15, other sugars and backbone not given here) [LNA-4749.2, miR-4749 targeted]",≥ 1 log 10
16,"+T+G+GTACCATGT+C+A+C (TGGTACCATGTCAC; antisense; sugars from the 5' end l3 d8 l3, backbone and methylation of C not given here) [Cov 1.4]",≥ 1 log 10
17,"+T+T+C+GTTTAGAGAA+C+A+G (TTCGTTTAGAGAACAG; antisense; sugars from the 5' end l4 d9 l3, backbone and methylation of C not given here) [Cov 6.7-2]",≥ 1 log 10
18,"+T+T+G+GCAATGTTG+T+T+C+C (TTGGCAATGTTGTTCC; antisense; sugars from the 5' end l4 d8 l4, backbone and methylation of C not given here) [Cov 12.5]",≥ 1 log 10
19,"+T+T+T+GGGCTTCCT+C+G+C+T (TTTGGGCTTCCTCGCT; antisense; LNA at 1, 2, 3, 4, 13, 14, 15, 16, other sugars and backbone not given here) [LNA-381.2, miR-381 targeted]",≥ 1 log 10
20,"+T+T+TCCTCTAT+G+T+T (TTTCCTCTATGTT; antisense; LNA at 1, 2, 3, 11, 12, 13, other sugars and backbone not given here) [LNA-376c.3, miR-376c targeted]",≥ 1 log 10
21,"+T+T+TCGGTCACACC+C+G+G (TTTCGGTCACACCCGG; antisense; sugars from the 5' end l3 d10 l3, backbone and methylation of C not given here) [Cov 8.1]",≥ 1 log 10
22,"+T+T+TCGTCCGGGTG+T+G+A (TTTCGTCCGGGTGTGA; antisense; sugars from the 5' end l3 d10 l3, backbone and methylation of C not given here) [Neg 8.4]",≥ 1 log 10
23,"+T+T+TTGGGATTC+C+G+T (TTTTGGGATTCCGT; antisense; sugars from the 5' end l3 d8 l3, backbone and methylation of C not given here) [LNA-191.4, miR-191 targeted]",≥ 1 log 10
24,"+T+TTCGTC+C+G+T (TTTCGTCCGT; antisense; sugars from the 5' end l2 d5 l3, backbone and methylation of C not given here) [LNA-6769-5P.3, miR-6769 targeted]",≥ 1 log 10
25,"CCCGGCTCCGAGCCCCGCC (LNA modifications, positions not given here) [LNA-10396.2, miR-10396 targeted]",≥ 1 log 10
26,"CGCGCGCCCAGCCCCGC (LNA modifications, positions not given here) [LNA-4508.4, miR-4508 targeted]",≥ 1 log 10
27,"CGGTCCCGCGGCGCCCCGCCT (LNA modifications, positions not given here) [LNA-663.3, miR-663 targeted]",≥ 1 log 10
